The full ranking holds about 3,200 compounds; the median of “TSA(without NAD+) / Primary screening (TSA) / delta Tm (K)” is about -0.07, and the highest 2% start at about 0.37. The list shows a part of the results.
What follows are compounds tested against NAD-dependent deacetylase Sirtuin 1 (human, UniProt Q96EB6) (assay: primary screen, delta tm). Details: 10 µM.
Set-up: single well (n = 1)
Summary of the method: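 Thermal shift of Sirtuin 1 measured without NAD+, compound at 10 µM (n = 1); value is ΔTm, with hits defined as ΔTm > 0.45 K or < −1.5 K. Hits retested at 5, 10, 20 µM (n = 4) and counterscreened on bovine carbonic anhydrase and ABL1 SH2 domain.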

Amino acid sequences for entries named in this document (tags omitted). Residues count along the entry.
UniProt Q96EB6, 2-747 limits assumed: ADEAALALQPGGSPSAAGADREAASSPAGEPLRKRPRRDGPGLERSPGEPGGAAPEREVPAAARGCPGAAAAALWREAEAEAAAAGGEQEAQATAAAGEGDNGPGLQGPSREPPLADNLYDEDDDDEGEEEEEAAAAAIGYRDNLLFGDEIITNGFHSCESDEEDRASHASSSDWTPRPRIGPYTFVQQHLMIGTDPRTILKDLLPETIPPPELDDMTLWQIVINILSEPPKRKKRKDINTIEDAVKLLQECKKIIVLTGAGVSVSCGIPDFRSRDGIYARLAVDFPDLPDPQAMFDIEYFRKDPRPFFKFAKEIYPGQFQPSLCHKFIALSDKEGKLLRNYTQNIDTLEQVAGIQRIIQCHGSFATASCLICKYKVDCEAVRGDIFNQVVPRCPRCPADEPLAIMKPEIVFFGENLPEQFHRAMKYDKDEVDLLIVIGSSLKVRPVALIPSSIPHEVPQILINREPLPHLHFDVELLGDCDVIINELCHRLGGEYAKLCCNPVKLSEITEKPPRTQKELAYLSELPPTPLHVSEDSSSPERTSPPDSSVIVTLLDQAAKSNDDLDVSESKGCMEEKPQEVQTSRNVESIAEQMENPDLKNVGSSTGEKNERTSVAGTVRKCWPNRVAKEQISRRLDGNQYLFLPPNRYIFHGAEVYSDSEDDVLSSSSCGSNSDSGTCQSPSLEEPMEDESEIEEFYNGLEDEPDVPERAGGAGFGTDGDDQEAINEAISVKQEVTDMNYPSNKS

| Structure (SMILES) | TSA(without NAD+) / Primary screening (TSA) / delta Tm (K) |
| --- | --- |
| NCCOCCCO | -0.04 K |
| CC1CCc2c(sc3ncnc(N4CCN(S(=O)(=O)c5ccc6c(c5)OCCO6)CC4)c23)C1 (centres unmarked) | 0.03 K |
| O=C(CN1CCN(Cc2ccc(Br)s2)CC1)Nc1cc(Cl)ccc1-n1cncn1 | 0.12 K |
| COc1ccc2c(c1)CCCC2CNC(=O)c1cc(C(N)=O)cs1 (centres unmarked) | -0.07 K |
| CN(Cc1ccc(C(=O)NCC(F)(F)F)cc1)Cc1nc2c(cnn2-c2ccccc2)c(=O)[nH]1 | -0.02 K |
| COCCOCCN | -0.03 K |
| O=C(O)CCc1c(-c2ccc(F)cc2)[nH]c2ccccc12 | -0.22 K |
| O=C1NC(=S)NC(=O)C1=Cc1cccnc1 | -0.11 K |
| O=C(CNCc1ccco1)Nc1ccccc1C(F)(F)F | -0.12 K |
| Cc1ccc(N(C)S(=O)(=O)c2cccc(C(=O)Nc3cc(F)ccc3C)c2)cc1 | -0.05 K |
| O=C(NC12CC3CC(CC(C3)C1)C2)c1ccccc1C(=O)OCC(=O)N1CCc2ccccc21 | -0.03 K |
| NC(=O)C1CCN(Cc2nc3c(Br)cc(Br)cc3c(=O)[nH]2)CC1 | -0.07 K |
| O=C(O)CSCC(=O)O | -0.22 K |
| Nc1cccc(N2C(=O)c3ccccc3C2=O)c1 | -0.13 K |
| O=C1NC(=S)N/C1=C\c1cc(Br)ccc1O | -0.23 K |
| NC(=O)c1cc2sc3ccccc3c2s1 | -0.23 K |
| Cn1c(SCc2cccc(C#N)c2)nc2ccsc2c1=O | -0.24 K |
| COC(=O)NCC(=O)NCc1ccc(Cn2cnc3ccccc32)cc1 | -0.14 K |
| O=C(O)Cc1cc(F)cc2c1OCOC2 | -0.04 K |
| NCCCC(N)C(=O)O (centres unmarked) | -0.02 K |
| COC(=O)c1ncccc1N1CCC(C(O)c2ccccc2)CC1 (centres unmarked) | -0.08 K |
| O=C(Nc1ccc(OC(F)F)c(Cc2ccccc2)c1)C1=COCCO1 | -0.12 K |

| Structure (SMILES) | TSA(without NAD+) / Primary screening (TSA) / delta Tm (K) |
| --- | --- |
| NCC(N)C1CCC1 (centres unmarked) | -0.31 K |
| CC(C)C(OC(=O)Cc1coc2cc(O)ccc12)C(=O)NC(N)=O (centres unmarked) | -0.08 K |
| COCCNc1nnc(SCc2cnc(-c3ccccc3)s2)s1 | -0.01 K |
| Cn1ncc2c(N3CCN(Cc4ccc5c(c4)CCO5)CC3)ncnc21 | -0.13 K |
| CC1CC(C(=O)Nc2ncc(C(N)=O)s2)CCO1 (centres unmarked) | 0.03 K |
| CCC(C)(N)CN (centres unmarked) | -0.04 K |
| CCOc1ccc(/C=C(/C#N)C(=O)c2c[nH]c3cc(F)ccc23)cc1 | 0.06 K |
| O=[N+]([O-])c1cnn(-c2ncnc3c2cnn3-c2ccccc2)c1 | -0.02 K |
| CN(CCCNC(=O)c1ccc2ccccc2c1)Cc1ccccc1 | -0.27 K |
| O=C(COC(=O)CON=C1c2ccccc2-c2ccccc21)Nc1ccc2c(c1)OCO2 | 0.17 K |
| CC1CC(=O)Nc2ccccc2N1C(=O)c1ccc2ccccc2c1 (centres unmarked) | -0.01 K |
| O=c1cc(N2CCC(C(O)c3ccccc3)CC2)nc2ccccn12 (centres unmarked) | -0.15 K |
| O=C(CN1C(=O)NC2(CCc3ccccc32)C1=O)NC(c1ccccc1)c1ccc(Cl)cc1 (centres unmarked) | -0.03 K |
| Oc1ccc(/C=N/c2cccc3cnccc23)c(O)c1O | -0.31 K |
| Cc1cc(C#N)ccc1S(=O)(=O)N1CCC(N)C1 (centres unmarked) | 0.02 K |
| O=C1/C(=C\c2ccc(Br)cc2F)COc2ccccc21 | 0.18 K |
| COc1ccc(S(=O)(=O)Nc2ccc(C(=O)NCC(=O)NCc3nnc4ccccn34)cc2)cc1 | -0.03 K |
| COc1ccc(OC)c(C2C(C(=O)/C=C/c3ccco3)=C(O)C(=O)N2CCCN2CCOCC2)c1 (centres unmarked) | -0.03 K |
| Cc1ccc(C(=O)C2=C(O)C(=O)N(CCCN3CCOCC3)C2c2ccccn2)o1 (centres unmarked) | 0.09 K |
| O=C(C1=C(O)C(=O)N(CCCN2CCOCC2)C1c1ccco1)c1ccc(F)cc1 (centres unmarked) | -0.08 K |
| O=C(Nc1cccnc1)c1ccc(F)cc1Br | -0.18 K |
| COc1ccc(OC)c(C=C2C(=O)NC(=S)NC2=O)c1 | -0.24 K |

3 structures out of the list, ordered by count of non-hydrogen atoms, rising:

| Structure (SMILES) | TSA(without NAD+) / Primary screening (TSA) / delta Tm (K) |
| --- | --- |
| Cc1cc(C#N)ccc1S(=O)(=O)N1CCC(N)C1 (centres unmarked) | 0.02 K |
| O=C1/C(=C\c2ccc(Br)cc2F)COc2ccccc21 | 0.18 K |
| O=c1cc(N2CCC(C(O)c3ccccc3)CC2)nc2ccccn12 (centres unmarked) | -0.15 K |

The results go on:

| Structure (SMILES) | TSA(without NAD+) / Primary screening (TSA) / delta Tm (K) |
| --- | --- |
| Cc1noc(C)c1CC(=O)OCc1cn(-c2ccccc2)nc1-c1ccc(Cl)cc1 | 0.22 K |
| Cc1[nH]c2ccccc2c1C(=O)CN1CCCC(C(N)=O)C1 (centres unmarked) | -0.15 K |
| Cc1ccc(CCC2CCNCC2)cc1 | -0.23 K |
| COc1cccc2cc(C(=O)C3=C(O)C(=O)N(CCCN4CCOCC4)C3c3ccncc3)oc12 (centres unmarked) | 0.02 K |
| C[C@@H](N)CCO | -0.18 K |
| N#Cc1ccc(C(=O)Nc2c(Cl)cccc2Cl)cc1 | 0.07 K |
| O=C(Nc1ccc(N2CCN(Cc3ccccc3)CC2)cc1)c1cccc(-n2cnnn2)c1 | -0.08 K |
| O=C(Nc1cccc(S(=O)(=O)N2CCOCC2)c1)C1=COCCO1 | 0.03 K |
| NCCC[C@@H](N)C(=O)O | -0.12 K |
| Cc1nnc(N2CCN(c3ncc(Br)cn3)CC2)c(C(N)=O)c1C | -0.31 K |
| NCC1(CN)CCCCC1 | -0.23 K |
| Cc1ccc2[nH]c3c(c2c1)CC(N)CC3 (centres unmarked) | -0.08 K |
| O=C(CSc1nnc(-c2ccccc2)o1)NCCCc1ccccc1 | -0.18 K |
| COc1ccc(C(=O)C2=C(O)C(=O)N(CCCN3CCOCC3)C2c2ccccc2)cc1C (centres unmarked) | 0.06 K |
| O=C(C1CCN(c2cc(=O)n3ccccc3n2)CC1)N1CCCC1 | -0.05 K |
| CC(=O)NCCC(=O)C(C#N)C(=O)c1c[nH]c2cc(Cl)ccc12 (centres unmarked) | -0.32 K |
| COc1cccc(C(=O)C2=C(O)C(=O)N(CCCN3CCOCC3)C2c2ccncc2)c1 (centres unmarked) | -0.18 K |
| CC(NC(=O)Cc1cc2ccccc2[nH]c1=O)c1ccc2ccccc2c1 (centres unmarked) | -0.14 K |
| CCCOc1ccc(C2C(C(=O)c3ccccc3)=C(O)C(=O)N2CCCN2CCOCC2)cc1 (centres unmarked) | 0.07 K |
| Cc1nnnn1Cc1cn2c(C)cccc2n1 | -0.23 K |
| O=C(NCC1CC1)c1ccc2[nH]c3c(c2c1)CCCCC3 | -0.12 K |

Reference: PMC6925144, “A prospective compound screening contest identified broader inhibitors for Sirtuin 1” (Scientific Reports, 2019)
